About 610 (0.16%) of roughly 390,000 compounds were called active. Inconclusive means that the source gave no clear call. Such entries were picked first, then a sample of the others. Calls come from the whole dose curve; as a rule, active = well fitted inhibition curve with a large enough effect; inconclusive = small, poorly fitted or top-dose-only effect, or effect the other way, or another doubt; inactive = no such curve, though single readings can be large or run the other way. Potencies of inconclusive entries are doubtful fits and often do not repeat.
Test: Nrf2 qHTS screen for inhibitors: counterscreen for cytotoxicity
Conditions: A549 ARE-Fluc cells, CellTiter-Fluor viability, 18-24 h; activity change, negative = cytotoxicity: at 46 µM (top of the series)
Summary of the method: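 A549 ARE-Fluc cells in 5% FBS OPTI-MEM, 5000 cells/well, rested 2 h then exposed to compounds in concentration-response for 18-24 h at 37 °C. Viability by CellTiter-Fluor fluorescence (Ex 405/Em 525) after 30 min; luciferase luminescence (BugLite, 15 min, RT) read afterwards.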
% is set by controls: 0 for no effect and ±100 for the full control effect; potency is the fitted concentration of half-maximal effect.

Compound | Potency | activity change, negative = cytotoxicity
CC(C)Cn1c(=O)c(C(=O)Nc2ccccc2S(N)(=O)=O)c(O)c2ccccc21 | inconclusive: 23.1 µM [falling, single point] | 
CSCCC1C(C#N)=C(N)Oc2n[nH]c(-c3cccs3)c21 (centres undefined) | inactive | 
CN(C)c1oc(/C=C/c2ccccc2)nc1C#N | inconclusive: 32.6 µM [activator, partial curve, poor fit] | 
Cc1ccc(S(=O)(=O)N2[C@@H](c3ccc(Br)cc3)C(C(=O)O)=CC[C@H]2c2ccc(C(C)C)cc2)cc1 | inconclusive: 25.9 µM [falling, partial curve, poor fit] | 
Cc1ccccc1OCCCn1c(CCNC(=O)C2CCCCC2)nc2ccccc21 | inconclusive: 29.1 µM [falling, single point] | 
Cc1cc(S(=O)(=O)c2ccc([N+](=O)[O-])cn2)ccc1Br | inactive | 
Cc1ccc2c(c1)nnn2C1CCN(CC(=O)N(c2ccccc2)c2ccccc2)CC1 | inconclusive: 20.6 µM [falling, single point] | 
CCOC(=O)N1CCN(C(=O)c2cc(COc3cccc(C(C)=O)c3)on2)CC1 | inactive | 
CC(=O)N1CCc2c(sc3c2c(=O)n(Cc2ccccc2)c(=O)n3Cc2cccc(Cl)c2)C1 | inactive | 
Cn1nc(-c2ccc(C(=O)Nc3cccnc3)cc2)c2ccccc2c1=O | inactive | 
O=C1c2c(O)ccc(O)c2C(=O)c2c(NCCNCCO)ccc(NCCNCCO)c21 | active: 13 µM | 
CCCCN(CC)CCNC(=O)c1cc2c(=O)[nH]c3ccc(C)cc3c2s1 | inconclusive: 32.6 µM [falling, partial curve, poor fit] | 
CCOC(=O)c1c(NC(=O)CSc2cn(CCNC(=O)c3ccc(OC)c(OC)c3)c3ccccc23)sc2c1CCC2 | inactive | 
CCOP(=O)(OCC)C(NC(=O)Nc1ccc(Cl)cc1)C(=O)N(CC)CC (centres undefined) | inconclusive: 25.9 µM [activator, partial curve, poor fit] | 
O=C1NC(=S)S/C1=C\c1coc2ccc(O)cc2c1=O | inconclusive: 18.4 µM [falling, partial curve, poor fit] | 
COC(=O)CN1C(=O)CSc2ccc(S(=O)(=O)Nc3ccccc3)cc21 | inactive | 
Cc1ccc2c(CC(=O)N3CCN(c4cccc(Cl)c4)CC3)coc2c1C |  | inconclusive: -67.1% [activator]
CCOc1ccc(N2C(=O)CC(N(CCc3ccc(OC)c(OC)c3)C(=S)Nc3ccccc3)C2=O)cc1 (centres undefined) | inconclusive: 23.1 µM [falling, partial curve, poor fit] | 
CC(C)C1Oc2ccccc2N(CC(=O)NC2CCCCC2)C1=O (centres undefined) | inconclusive: 32.6 µM [falling, partial curve, poor fit] | 

Some values from the list.
Entry of CCOc1ccc(N2C(=O)CC(N(CCc3ccc(OC)c(OC)c3)C(=S)Nc3ccccc3)C2=O)cc1 (centres undefined) under Potency: inconclusive: 23.1 µM [falling, partial curve, poor fit]
Entry of CCOP(=O)(OCC)C(NC(=O)Nc1ccc(Cl)cc1)C(=O)N(CC)CC (centres undefined) under Potency: inconclusive: 25.9 µM [activator, partial curve, poor fit]
